Reference: the supplement of paper PMC4604168 (melanoma cell lines)
The other results are listed elsewhere or left out. Many values rest on one well or one pass, so single values are uncertain.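 Imaging used 1,536-well plates; nuclei positive for cleaved PARP by antibody were divided by total DNA-stained nuclei to yield the apoptosis fraction. Doses for screening kept most cells viable, and cell lines differ markedly in resting and induced cleaved-PARP levels.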

Assays:
Test in all cases: cleaved PARP positive nuclei fraction relative to DMSO control; melanoma cells; higher = more apoptosis
Conditions in all cases: library dose: low library concentration; 72 h
[1] = tested on: 501Mel
[2] = tested on: A101D
[3] = tested on: A2058
[4] = tested on: A375
[5] = tested on: C32
[6] = tested on: CBRC008 (line from a melanoma biopsy)
[7] = tested on: CBRC014 (line from a melanoma biopsy)
[8] = tested on: CBRC016 (line from a melanoma biopsy)
[9] = tested on: CBRC017 (line from a melanoma biopsy)
[10] = tested on: CBRC013 (line from a melanoma biopsy)

SMILES	cleaved PARP positive nuclei fraction [1] [%]	cleaved PARP positive nuclei fraction [2] [%]	cleaved PARP positive nuclei fraction [3] [%]	cleaved PARP positive nuclei fraction [4] [%]	cleaved PARP positive nuclei fraction [5] [%]	cleaved PARP positive nuclei fraction [6] [%]	cleaved PARP positive nuclei fraction [7] [%]	cleaved PARP positive nuclei fraction [8] [%]	cleaved PARP positive nuclei fraction [9] [%]	cleaved PARP positive nuclei fraction [10] [%]
CN(c1ncccc1CNc1nc(Nc2ccc3c(c2)CC(=O)N3)ncc1C(F)(F)F)S(C)(=O)=O + N.N.[Cl][Pt][Cl] [cisplatin] (first compound 0.08 µM, partner dose 1.6 µM)	139	44.8	105	232	93.2	208	107	180	86.9	
Cn1cc(C2=C(c3cn(C4CCN(Cc5ccccn5)CC4)c4ccccc34)C(=O)NC2=O)c2ccccc21 [Enzastaurin] + Cn1c(Nc2ccc(C(F)(F)F)cc2)nc2cc(Oc3ccnc(-c4ncc(C(F)(F)F)[nH]4)c3)ccc21 [CHIR265] (first compound 0.8 µM, partner dose 0.08 µM)	99.3	134	275	302	75.5	418	98.1	168	133	
CC1(C)CCC(c2ccc(Cl)cc2)=C(CN2CCN(c3ccc(C(=O)NS(=O)(=O)c4ccc(N[C@H](CCN5CCOCC5)CSc5ccccc5)c(S(=O)(=O)C(F)(F)F)c4)cc3)CC2)C1 + C[C@]12O[C@H](C[C@]1(O)CO)n1c3ccccc3c3c4c(c5c6ccccc6n2c5c31)CNC4=O [Lestaurtinib] (first compound 0.4 µM, partner dose 0.004 µM)	178	148	124	163	198	436	480	515	344	
C=C(c1ccc(C(=O)O)cc1)c1cc2c(cc1C)C(C)(C)CCC2(C)C [Bexarotene] + C[As](C)SC[C@H](NC(=O)CC[C@H](N)C(=O)O)C(=O)NCC(=O)O [Darinaparsin] (first compound 2 µM, partner dose 0.4 µM)	42	88.4	55.5	18.2	41	44.9	117	112	110	
N.N.[Cl][Pt][Cl] [cisplatin] + CC(=O)c1c(C)c2cnc(Nc3ccc(N4CCNCC4)cn3)nc2n(C2CCCC2)c1=O [palbociclib] (first compound 1.6 µM, partner dose 0.04 µM)	95.3	138	108	203	84	220	95.2	140	91.6	
C[C@]12O[C@H](C[C@]1(O)CO)n1c3ccccc3c3c4c(c5c6ccccc6n2c5c31)CNC4=O [Lestaurtinib] + NC1(c2ccc(-c3nc4ccn5c(=O)[nH]nc5c4cc3-c3ccccc3)cc2)CCC1 [MK2206] (first compound 0.004 µM, partner dose 0.4 µM)	352	207	74.2	142	68.5	55.1	281	91.9	86.6	
C[C@]12O[C@H](C[C@]1(O)CO)n1c3ccccc3c3c4c(c5c6ccccc6n2c5c31)CNC4=O [Lestaurtinib] + C[C@]1(c2nc3c(C(N)=O)cccc3[nH]2)CCCN1 [Veliparib] (first compound 0.004 µM, partner dose 1.4 µM)	87.3	135	58.1	48.2	85.9	101	91	84.6	82.6	
Cn1sc(=O)n(Cc2ccccc2)c1=O + N.N.[Cl][Pt][Cl] [cisplatin] (first compound 0.4 µM, partner dose 1.6 µM)	118	60.3	140	101	77.9	123	108	156	111	
N.N.[Cl][Pt][Cl] [cisplatin] + Nc1nc(F)nc2c1ncn2[C@@H]1O[C@H](CO)[C@@H](O)[C@@H]1O [fludarabine] (first compound 1.6 µM, partner dose 0.2 µM)	3890	50.9	109	7980	68.3	267	89.2	101	88	
Cc1ccc(Nc2nccc(N(C)c3ccc4c(C)n(C)nc4c3)n2)cc1S(N)(=O)=O [Pazopanib] + C[C@]12O[C@H](C[C@]1(O)CO)n1c3ccccc3c3c4c(c5c6ccccc6n2c5c31)CNC4=O [Lestaurtinib] (first compound 0.4 µM, partner dose 0.004 µM)	72.1	51.8	179	186	82.5	81.6	116	65.9	104	
Nc1ncn([C@H]2C[C@H](O)[C@@H](CO)O2)c(=O)n1 [decitabine] + C[As](C)SC[C@H](NC(=O)CC[C@H](N)C(=O)O)C(=O)NCC(=O)O [Darinaparsin] (first compound 0.1 µM, partner dose 0.4 µM)	134	42.8	164	31.3	72.6	101	102	130	106	
COc1cc([C@@H]2c3cc4c(cc3[C@@H](O[C@@H]3O[C@@H]5CO[C@@H](C)O[C@H]5[C@H](O)[C@H]3O)[C@H]3COC(=O)[C@H]23)OCO4)cc(OC)c1O [etoposide] + Cn1cc(C2=C(c3cn(C4CCN(Cc5ccccn5)CC4)c4ccccc34)C(=O)NC2=O)c2ccccc21 [Enzastaurin] (first compound 0.02 µM, partner dose 0.8 µM)	44.9	190	118	226	69.7	101	102	80.5	103	
C[C@]1(O)C[C@@H](c2nc(-c3ccc4ccc(-c5ccccc5)nc4c3)c3c(N)nccn32)C1 + N.N.[Cl][Pt][Cl] [cisplatin] (first compound 0.4 µM, partner dose 1.6 µM)	106	94.6	97.5	323	81.9	118	143	80.6	149	
C[C@]12O[C@H](C[C@]1(O)CO)n1c3ccccc3c3c4c(c5c6ccccc6n2c5c31)CNC4=O [Lestaurtinib] + C[C@]1(O)C[C@@H](c2nc(-c3ccc4ccc(-c5ccccc5)nc4c3)c3c(N)nccn32)C1 [OSI906] (first compound 0.004 µM, partner dose 0.4 µM)	102	213	132	488	173	133	124	39.6	135	
Cn1cc(C2=C(c3cn(C4CCN(Cc5ccccn5)CC4)c4ccccc34)C(=O)NC2=O)c2ccccc21 [Enzastaurin] + OCc1c[nH]c2ccccc12 [Indole-3-carbinol] (first compound 0.8 µM, partner dose 0.8 µM)	96.2	42.7	82.6	165	404	78.1	97	98.3	119	
C[C@]12O[C@H](C[C@]1(O)CO)n1c3ccccc3c3c4c(c5c6ccccc6n2c5c31)CNC4=O [Lestaurtinib] + Cn1c(=O)n(-c2ccc(C(C)(C)C#N)cc2)c2c3cc(-c4cnc5ccccc5c4)ccc3ncc21 [NVP-BEZ235] (first compound 0.004 µM, partner dose 0.004 µM)	56.8	94.6	97.7	301	163	59	101	72.6	98.9	
O=c1[nH]nc(Sc2ncc([N+](=O)[O-])s2)n1-c1ccc2c(c1)OCCO2 + C[As](C)SC[C@H](NC(=O)CC[C@H](N)C(=O)O)C(=O)NCC(=O)O [Darinaparsin] (first compound 0.2 µM, partner dose 0.4 µM)	136	214	204	189	75.7	105	127	82.5	121	
CC[C@]1(O)C[C@H]2CN(CCc3c([nH]c4ccccc34)[C@@](C(=O)OC)(c3cc4c(cc3OC)N(C=O)[C@H]3[C@@](O)(C(=O)OC)[C@H](OC(C)=O)[C@]5(CC)C=CCN6CC[C@]43[C@@H]65)C2)C1 [vincristine] + C[C@]12O[C@H](C[C@]1(O)CO)n1c3ccccc3c3c4c(c5c6ccccc6n2c5c31)CNC4=O [Lestaurtinib] (first compound 0.0001 µM, partner dose 0.004 µM)	98.6	314	263	106	83.2	144	82.5	79.9	93.5	
COc1ccc(-c2ccc3c(N4CCOCC4)nc(N4C[C@@H](C)O[C@@H](C)C4)nc3n2)cc1CO + Cc1cc(SCc2sc(-c3ccc(C(F)(F)F)c(F)c3)nc2C)ccc1OCC(=O)O [GW0742] (first compound 0.02 µM, partner dose 2 µM)	152	135	124	184	44.7		120	52.7	107	48.5
Cn1cc(C2=C(c3cn(C4CCN(Cc5ccccn5)CC4)c4ccccc34)C(=O)NC2=O)c2ccccc21 [Enzastaurin] + Cn1sc(=O)n(Cc2ccccc2)c1=O [TDZD-8] (first compound 0.8 µM, partner dose 0.4 µM)	24.3	64	65	162	68	35.7	85.7	81.4	121	
Cn1cc(C2=C(c3cn(C4CCN(Cc5ccccn5)CC4)c4ccccc34)C(=O)NC2=O)c2ccccc21 [Enzastaurin] + CO[C@H]1C[C@@H]2CC[C@@H](C)[C@@](O)(O2)C(=O)C(=O)N2CCCC[C@H]2C(=O)O[C@H]([C@H](C)C[C@@H]2CC[C@@H](OCCO)[C@H](OC)C2)CC(=O)[C@H](C)/C=C(\C)[C@@H](O)[C@@H](OC)C(=O)[C@H](C)C[C@H](C)/C=C/C=C/C=C/1C [everolimus] (first compound 0.8 µM, partner dose 0.02 µM)	4100	111	88.1	281	76.7	137	98.3	249	118	
CCCCCCCCc1ccc(CCC(N)(CO)CO)cc1 [fingolimod] + N.N.[Cl][Pt][Cl] [cisplatin] (first compound 2 µM, partner dose 1.6 µM)	254	107	74	428	73.4	45.1	123	186	114	

2 consecutive records already listed, for reference:
SMILES	cleaved PARP positive nuclei fraction [1] [%]	cleaved PARP positive nuclei fraction [2] [%]	cleaved PARP positive nuclei fraction [3] [%]	cleaved PARP positive nuclei fraction [4] [%]	cleaved PARP positive nuclei fraction [5] [%]	cleaved PARP positive nuclei fraction [6] [%]	cleaved PARP positive nuclei fraction [7] [%]	cleaved PARP positive nuclei fraction [8] [%]	cleaved PARP positive nuclei fraction [9] [%]	cleaved PARP positive nuclei fraction [10] [%]
Cn1sc(=O)n(Cc2ccccc2)c1=O + N.N.[Cl][Pt][Cl] [cisplatin] (first compound 0.4 µM, partner dose 1.6 µM)	118	60.3	140	101	77.9	123	108	156	111	
N.N.[Cl][Pt][Cl] [cisplatin] + Nc1nc(F)nc2c1ncn2[C@@H]1O[C@H](CO)[C@@H](O)[C@@H]1O [fludarabine] (first compound 1.6 µM, partner dose 0.2 µM)	3890	50.9	109	7980	68.3	267	89.2	101	88	
